This note sets out measurements from PMC6161846.

Sequences of proteins named here, by UniProt entry; tags and fusion partners are left off. A change or cut given only in a name is not applied to a line headed by its entry.
UniProt Q13444: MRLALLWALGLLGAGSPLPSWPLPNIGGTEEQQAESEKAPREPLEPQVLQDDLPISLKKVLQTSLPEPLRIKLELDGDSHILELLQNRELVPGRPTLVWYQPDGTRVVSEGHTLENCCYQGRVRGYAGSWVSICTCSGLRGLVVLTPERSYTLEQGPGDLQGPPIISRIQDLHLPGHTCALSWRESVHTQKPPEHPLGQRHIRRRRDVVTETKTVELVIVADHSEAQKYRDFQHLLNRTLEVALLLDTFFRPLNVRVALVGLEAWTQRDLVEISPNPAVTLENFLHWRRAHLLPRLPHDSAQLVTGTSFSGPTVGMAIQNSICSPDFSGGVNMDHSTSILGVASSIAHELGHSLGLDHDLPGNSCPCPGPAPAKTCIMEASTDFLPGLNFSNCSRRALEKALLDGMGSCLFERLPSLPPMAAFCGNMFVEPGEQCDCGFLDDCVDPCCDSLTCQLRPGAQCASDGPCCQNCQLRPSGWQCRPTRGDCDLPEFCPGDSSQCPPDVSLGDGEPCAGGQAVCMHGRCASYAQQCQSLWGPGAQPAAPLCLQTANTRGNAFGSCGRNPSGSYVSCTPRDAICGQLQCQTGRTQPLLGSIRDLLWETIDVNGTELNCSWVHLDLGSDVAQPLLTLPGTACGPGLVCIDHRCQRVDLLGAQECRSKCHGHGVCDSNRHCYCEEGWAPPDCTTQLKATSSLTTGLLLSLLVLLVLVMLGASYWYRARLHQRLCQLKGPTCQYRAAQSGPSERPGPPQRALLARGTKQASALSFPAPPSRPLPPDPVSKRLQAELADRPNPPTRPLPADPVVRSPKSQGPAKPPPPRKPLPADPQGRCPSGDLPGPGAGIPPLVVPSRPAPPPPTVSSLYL
UniProt P11940: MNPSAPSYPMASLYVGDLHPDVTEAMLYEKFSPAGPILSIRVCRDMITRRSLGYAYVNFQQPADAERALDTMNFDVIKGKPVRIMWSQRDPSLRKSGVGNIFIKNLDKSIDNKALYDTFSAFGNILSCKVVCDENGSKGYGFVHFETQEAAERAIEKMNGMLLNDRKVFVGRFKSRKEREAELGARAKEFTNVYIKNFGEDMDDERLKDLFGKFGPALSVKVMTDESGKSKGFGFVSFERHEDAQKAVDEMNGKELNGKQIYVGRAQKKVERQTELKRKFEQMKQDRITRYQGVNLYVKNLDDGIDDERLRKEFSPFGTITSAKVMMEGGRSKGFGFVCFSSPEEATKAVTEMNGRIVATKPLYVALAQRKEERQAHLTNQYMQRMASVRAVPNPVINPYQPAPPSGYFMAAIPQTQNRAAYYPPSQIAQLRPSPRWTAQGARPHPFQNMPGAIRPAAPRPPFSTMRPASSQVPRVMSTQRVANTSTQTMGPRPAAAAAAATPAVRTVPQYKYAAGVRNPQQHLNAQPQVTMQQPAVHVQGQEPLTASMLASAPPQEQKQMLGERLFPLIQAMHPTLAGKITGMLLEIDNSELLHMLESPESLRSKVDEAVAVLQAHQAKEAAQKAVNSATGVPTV

Results are given in words; binding and its absence hold for the method and conditions named. In cells and extracts the contact can be indirect. Here binding means that the protein was enriched with, or labelled near, the bait; the list need not be complete.

In this assay the target is full-length ADAM15 (UniProt Q13444). Put plainly: affinity purification with mass spectrometry; IP of lysates of ADAM15-transfected T/C28a4 cells with anti-ADAM15 antibodies, SDS/PAGE, band at ~75 kDa excised, peptide mass fingerprinting by MALDI-TOF.

As to “poly(A) binding protein 1 (PABP) (from UniProt P11940 1-636)”, the binding result is given as “binds”.
